# Measurements from the supplement of paper PMC4749390.
# Where a name gives a salt, the structure may show the parent alone. The list shows a part of the results. Single values are uncertain here, since repeats match poorly.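 JEG3 cells stably express tetracycline-inducible wild-type human LRH-1, a highly sumoylated nuclear receptor. SUMO-sensitive transcripts APOC3 and MUC1, increased by SUMO-deficient LRH-1 or UBC9 knockdown, were quantified by RT-qPCR relative to TBP and DMSO controls. Primary hits had robust Z-scores above +2 or below -2, before toxicity and TBP filtering.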
# System: JEG3 expressing hLRH-1
# Assay: MUC1 transcript change (ddCt vs TBP and DMSO), Z-score over library; higher = higher MUC1 expression
# Details: 10 µM; time (hr): 24
row,SMILES,MUC1 transcript change (Z-score)
1,O=c1n(Cl)c(=O)n(Cl)c(=O)n1Cl [symclosene],-0.113
2,"C[C@@H]([C@H](O)c1ccccc1)N(C)C [(-)-Ephedrine, N-Methyl]",-0.647
3,O=C(O)Cc1ccccc1 [sodium phenylacetate],0.584
4,Oc1cccc2cccnc12 [oxyquinoline],0.792
5,CC(C)(O)C(Cl)(Cl)Cl [chlorobutanol],1.46
6,COc1ccc(C(CN(C)C)C2(O)CCCCC2)cc1 (stereo not drawn) [venlafaxine hydrochloride],0.758
7,Cc1ncc(CNC(=O)N(CCCl)N=O)c(N)n1 [nimustine],0.212
8,O=P1(NCCCl)OCCCN1CCCl (stereo not drawn) [ifosfamide],0.611
9,O=C(O)c1nn(Cc2ccc(Cl)cc2Cl)c2ccccc12 [lonidamine],0.0163
10,O=C1C[C@@H]2OCC=C3CN4CC[C@]56c7ccccc7N1[C@H]5[C@H]2[C@H]3C[C@H]46 [strychnine],0.0505
11,CNc1ccc(C(=O)CC(O)CCC(C)C2OC(=O)CC(O)CC(=O)CC(O)CC(O)CC(O)CC(O)CC3(O)CC(O)C(C(=O)OC)C(CC(O[C@@H]4O[C@H](C)[C@@H](O)[C@H](N)[C@@H]4O)/C=C/C=C/C=C/C=C/C=C/C=C/C=C/C2C)O3)cc1 (stereo partly drawn) [mepartricin],-0.51
12,NCCc1cc(O)c(O)cc1O [oxidopamine hydrochloride],-0.958
13,C[N+](C)(C)CCCCCCCCCC[N+](C)(C)C [Decamethonium dibromide],1.09
14,CC(=O)OC1CN2CCC1CC2 (stereo not drawn) [aceclidine hydrochloride],0.714
15,C[C@]12CCC(=O)C=C1CCC1C2CC[C@@]2(C)C1CC[C@@H]2O (stereo partly drawn) [testosterone],-0.0531
16,C=C[C@H]1CN2CC[C@H]1C[C@H]2[C@H](O)c1ccnc2ccccc12 [cinchonidine],0.221
17,Oc1cc(Cl)ccc1Oc1ccc(Cl)cc1Cl [triclosan],0.154
18,NC(=O)c1cc([N+](=O)[O-])cc([N+](=O)[O-])c1 [nitromide],0.647
19,Nc1ccncc1 [4-Aminopyridine],-0.218
20,O=[N+]([O-])O[C@H]1CO[C@H]2[C@@H]1OC[C@H]2O[N+](=O)[O-] [isosorbide dinitrate],0.573
21,CCOC(=O)c1cncn1[C@H](C)c1ccccc1 [etomidate],-0.132

row,SMILES,MUC1 transcript change (Z-score)
1,CC(=O)Nc1cc([As](=O)(O)O)ccc1O [acetarsol],0.756
2,O=C1C=C2C=C[C@@H]3C[C@@]2(O1)[C@H]1CCCCN31 [securinine],-2.41
3,O=C(CCCN1CCC2(CC1)C(=O)NCN2c1ccccc1)c1ccc(F)cc1 [Spiperone hydrochloride],1.3
4,C[N+]12CCC(CC1)C(OC(=O)C(O)(c1ccccc1)c1ccccc1)C2 (stereo not drawn) [clidinium bromide],0.263
5,CN1C2C[C@H](OC(=O)[C@H](CO)c3ccccc3)C[C@H]1[C@H]1OC21 (stereo partly drawn) [scopolamine hydrobromide],0.822
6,CC(=O)O[C@H]1CC[C@@]2(C)C(=CCC3C2CC[C@]2(C)C(=O)CCC32)C1 (stereo partly drawn) [praesterone acetate],0.378
7,C[C@@H]1C[C@@H]([C@H](O)CC2CC(=O)NC(=O)C2)C(=O)[C@@H](C)C1 [cycloheximide],1.72
8,CC(=O)[C@H]1CCC2[C@@H]3CCC4C[C@H](O)CC[C@]4(C)C3CC[C@@]21C (stereo partly drawn) [eltanolone],-0.796
9,CN1C[C@H](C(=O)N[C@]2(C)O[C@@]3(O)[C@@H]4CCCN4C(=O)[C@H](Cc4ccccc4)N3C2=O)C[C@@H]2c3cccc4[nH]cc(c34)C[C@H]21 [Dihydroergotamine methanesulfonate],0.763
10,CC(=O)OCC1=C(C(=O)O)N2C(=O)[C@@H](NC(=O)CCCC(N)C(=O)O)C2SC1 (stereo partly drawn) [cephalosporin c sodium],-0.439
11,COc1ccc2c(c1)[C@]13CCCC[C@@H]1[C@H](C2)N(C)CC3 [dextromethorphan hydrobromide],0.534
12,N[C@@H](Cc1ccc(N(CCCl)CCCl)cc1)C(=O)O [melphalan],-0.672
13,C=CC[C@]1(O)CC[C@H]2[C@@H]3CCC4=CC(=O)CCC4=C3C=C[C@@]21C [altrenogest],0.538
14,C1CCc2nnnn2CC1 [pentetrazole],-0.241
15,C=CCN=C=S [allylisothiocyanate],-0.0259
16,C[C@H](N)[C@H](O)c1ccc(O)c(O)c1 [levonordefrin],0.283
17,CC(CCc1ccccc1)NC(C)C(O)c1ccc(O)cc1 (stereo not drawn) [Nylidrin hydrochloride],-0.0328
18,Nc1nc(N)nc(NC2CC2)n1 [cyromazine],0.407
19,C[N+]1(C)CCCC(OC(=O)C(O)(c2ccccc2)c2ccccc2)C1 (stereo not drawn) [mepenzolate bromide],0.314
20,CC(O)(CS(=O)(=O)c1ccc(F)cc1)C(=O)Nc1ccc(C#N)c(C(F)(F)F)c1 (stereo not drawn) [bicalutamide],-0.087
21,O=C(O)CCCc1ccc(N(CCCl)CCCl)cc1 [chlorambucil],0.53

row,SMILES,MUC1 transcript change (Z-score)
1,c1ccc2c(c1)sc1ccccc12 [dibenzothiophene],-1.11
2,Cc1cc(O)ccc1Cl [chlorocresol],-4.11
3,C#CCN(C)C(C)Cc1ccccc1 (stereo not drawn) [selegiline hydrochloride],0.734
4,Cc1cc(C(C#N)c2ccc(Cl)cc2)c(Cl)cc1NC(=O)c1cc(I)cc(I)c1O (stereo not drawn) [closantel],0.637
5,O=C1[O][Pt]2([NH][C@@H]3CCCC[C@H]3[NH]2)[O]C1=O [oxaliplatin],1.03
6,COc1ccc(CN2CCNCC2)c(OC)c1OC [trimetazidine dihydrochloride],-0.603
7,Cc1ccc(/N=C/N(C)/C=N/c2ccc(C)cc2C)c(C)c1 [amitraz],0.895
8,CC[C@H]1C2CC3[C@@H]4N(C)c5ccccc5[C@]45C[C@@H](C2C5O)N3[C@@H]1O (stereo partly drawn) [ajmaline],1.07
9,CC(Cc1ccc(O)cc1)NCC(O)c1cc(O)cc(O)c1 (stereo not drawn) [fenoterol hydrobromide],0.127
10,OC[C@@H](O)[C@H]1O[C@@H]2O[C@H](C(Cl)(Cl)Cl)O[C@@H]2[C@H]1O [chloralose],-0.153
11,COc1ccc(O)c(C(C)(C)C)c1 [butylated hydroxyanisole],0.227
12,CC(C)N(CCC(C(N)=O)(c1ccccc1)c1ccccn1)C(C)C (stereo not drawn) [Disopyramide phosphate],0.361
13,COc1ccc(C(=O)N2CCCC2=O)cc1 [Aniracetam],1.12
14,CC(C)C[C@H](CN)CC(=O)O [pregabalin],0.409
15,CN(C)C(=S)SSC(=S)N(C)C [thiram],1.16
16,CC(C)(C)NCC(O)c1ccccc1Cl (stereo not drawn) [tulobuterol],-0.166
17,CCC(C)(C)O [amylene hydrate],0.704
18,CNC(C)C(O)c1ccccc1 (stereo not drawn) [racephedrine hydrochloride],0.221
19,COc1cccc([C@]2(O)CCCC[C@H]2CN(C)C)c1 [tramadol hydrochloride],0.377
20,[N-]=[N+]=CC(=O)OCC(N)C(=O)O (stereo not drawn) [azaserine],0.416
21,CCn1cc(C(=O)O)c(=O)c2cc3c(cc21)OCO3 [oxolinic acid],-1.25

# In a second layout: results already given.
row	SMILES	MUC1 transcript change (Z-score)
2	Cc1cc(O)ccc1Cl [chlorocresol]	-4.11
3	C#CCN(C)C(C)Cc1ccccc1 (stereo not drawn) [selegiline hydrochloride]	0.734
8	CC[C@H]1C2CC3[C@@H]4N(C)c5ccccc5[C@]45C[C@@H](C2C5O)N3[C@@H]1O (stereo partly drawn) [ajmaline]	1.07
18	CNC(C)C(O)c1ccccc1 (stereo not drawn) [racephedrine hydrochloride]	0.221

# Next part:

row,SMILES,MUC1 transcript change (Z-score)
1,CN1C[C@H](C(=O)N[C@]2(C)O[C@@]3(O)C4CCCN4C(=O)[C@H](Cc4ccccc4)N3C2=O)C=C2c3cccc4[nH]cc(c34)C[C@H]21 (stereo partly drawn) [ergotamine tartrate],0.864
2,"CNC(C)[C@H](O)c1ccccc1 (stereo partly drawn) [ephedrine (1r,2s) hydrochloride]",0.708
3,Nc1ccc([As](=O)(O)O)cc1 [arsanilic acid],0.348
4,Clc1ccc(C(OCCN2CCCCC2)c2ccccc2)cc1 (stereo not drawn) [cloperastine hydrochloride],-0.254
5,C[C@@H](CO)NC(=O)[C@@H]1C=C2c3cccc4[nH]cc(c34)C[C@H]2N(C)C1 [ergonovine maleate],-0.921
6,O=[N+]([O-])C(Br)(CO)CO [bronopol],-1.41
7,O=C(OC1CC2CCC(C1)[N+]21CCCC1)C(O)(c1ccccc1)c1ccccc1 (stereo not drawn) [trospium chloride],-0.693
8,C[N+]1([O-])C2CCC1CC(OC(=O)C(CO)c1ccccc1)C2 (stereo not drawn) [atropine oxide],-0.222
9,CCC(=O)O[C@H]1CCC2C3CCC4=CC(=O)CC[C@]4(C)C3CC[C@@]21C (stereo partly drawn) [testosterone propionate],0.931
10,C=CCC1(C(C)CCC)C(=O)N=C(S)NC1=O (stereo not drawn) [thiamylal sodium],-1.07
11,Oc1ccc(Cl)cc1 [parachlorophenol],0.543
12,NP(N)(=O)NC(=O)c1ccc(F)cc1 [flurofamide],-4.32
13,NC(=O)CN1CCCC1=O [piracetam],0.854
14,Oc1ccc(Cl)cc1Cc1cc(Cl)ccc1O [dichlorophene],-1.03
15,CC(CC(C(N)=O)(c1ccccc1)c1ccccc1)N(C)C (stereo not drawn) [aminopentamide sulfate],1.4
16,"CC[C@@H](C(=O)[C@@H](C)[C@@H](O)[C@H](C)[C@@H]1O[C@@H]([C@@H](CC)C(=O)O)CC[C@@H]1C)[C@H]1OC2(C=C[C@@H](O)[C@]3(CC[C@@](C)([C@H]4CC[C@](O)(CC)[C@H](C)O4)O3)O2)[C@H](C)C[C@@H]1C (stereo partly drawn) [salinomycin, sodium]",2.78
17,CCOP(=S)(OCC)Oc1cc(C)nc(C(C)C)n1 [diazinon],0.303
18,CCC(COC(=O)c1cc(OC)c(OC)c(OC)c1)(c1ccccc1)N(C)C (stereo not drawn) [trimebutine maleate],-0.269
19,COc1cc2c(c(OC)c1OC)-c1ccc(OC)c(=O)cc1[C@@H](NC(C)=O)CC2 [colchicine],-1.15
20,C[C@]12CC[C@@H]3c4ccc(OC(=O)N(CCCl)CCCl)cc4CC[C@H]3[C@@H]1CC[C@@H]2O [estramustine],0.91
